Source: the supplement of paper PMC7125110
± gives the standard error. Many entries were measured with a wide error.

B1: glmS ribozyme (parent)
chain: AUAAAAGCGCCAGAACUACAGAAAUGUAGUUGACGAGGAGGAGGUUUAUCGAAUUUUCGGCGGAUGCCUCCAAA

Variants of: B1
Test: self-cleavage kobs at 160 uM GlcN6P; higher = faster cleavage; RNA array
Settings: with glucosamine-6-phosphate
Summary of the method: (§1)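 Tracking of barcoded ribozyme variants used a hybridised Cy3 probe at 37 °C, after in situ transcription by E. coli RNA polymerase on sequenced MiSeq chips. The flowed solution held 40 μM to 10 mM glucosamine-6-phosphate in HEPES/KCl/Mg(OAc)2 buffer, and imaging ran over ~14 h. kobs was taken from exponential decay fits of normalised per-tile medians, and kcat and KM from weighted Michaelis–Menten fits.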

Variant	self-cleavage kobs at 160 uM GlcN6P
G66C C71G	2.19e-05 ± 1.9e-05 s⁻¹
G38U C50G A64G	3.08e-05 ± 2.2e-05 s⁻¹
A14U U45C	3.26e-05 ± 1.7e-05 s⁻¹
C16G U30C	2.69e-05 ± 2.1e-05 s⁻¹
A15C C50U G51A G62U U69C	2.5e-05 ± 1.7e-05 s⁻¹
G29U C50A G51U C58A	2.99e-05 ± 1.9e-05 s⁻¹
C61G C67U	2.2e-05 ± 1.4e-05 s⁻¹
A33G G37U U47G C68A	2.67e-05 ± 1.8e-05 s⁻¹
A48U U65G C67A C70A	4.72e-05 ± 2.7e-05 s⁻¹
C11U G59U	1.87e-05 ± 1.2e-05 s⁻¹
C10G U54A C58G G62C C67G	4.94e-05 ± 2.9e-05 s⁻¹
U31G A52G	2.72e-05 ± 1.7e-05 s⁻¹
A12C G44U	1.8e-05 ± 1.4e-05 s⁻¹
C67A C70G	1.68e-05 ± 1.6e-05 s⁻¹
G37A C67A	2.13e-05 ± 1.6e-05 s⁻¹
C68G C70U	1.63e-05 ± 1.5e-05 s⁻¹
G13U U31C C50G G63U	3.48e-05 ± 2.2e-05 s⁻¹
A6U A64G	1.83e-05 ± 1.4e-05 s⁻¹
G13A C16G	2.34e-05 ± 2.2e-05 s⁻¹

Variant	self-cleavage kobs at 160 uM GlcN6P
C16G U46C	2.84e-05 ± 2e-05 s⁻¹
A48C U55A	2.46e-05 ± 2.4e-05 s⁻¹
C10A A12U G29A A39G A52G C67G	0.000292 ± 0.00016 s⁻¹
C50U C71G	2.05e-05 ± 1.5e-05 s⁻¹
A14U C34A C50G U54G C71G	2.92e-05 ± 1.5e-05 s⁻¹
A6C A14G	3.52e-05 ± 2.9e-05 s⁻¹
G13U C71G	3.58e-05 ± 2.3e-05 s⁻¹
U30G U55G	0.00062 ± 0.00033 s⁻¹
A6U C71U	2.04e-05 ± 1.2e-05 s⁻¹
C34G G38A C58A C68G	3.28e-05 ± 2.5e-05 s⁻¹
A52C A53U C67U C68U	2.83e-05 ± 2.3e-05 s⁻¹
C11G C67G C70G	4.19e-05 ± 2.1e-05 s⁻¹
U30A G41U	2.29e-05 ± 1.5e-05 s⁻¹
U31C U65G	2.53e-05 ± 1.9e-05 s⁻¹
G62A C70G	2.17e-05 ± 2e-05 s⁻¹
A14C A15U	2.44e-05 ± 1.9e-05 s⁻¹
A12G U47A	2.15e-05 ± 1.3e-05 s⁻¹
U30C U56A	1.91e-05 ± 1.1e-05 s⁻¹
U45A C67G	4.11e-05 ± 2.1e-05 s⁻¹

Variants of: B1
Test: self-cleavage kobs at 2500 uM GlcN6P; higher = faster cleavage; RNA array
Settings: with glucosamine-6-phosphate
Summary of the method: as §1

Variant	self-cleavage kobs at 2500 uM GlcN6P
C11U A53G G66A	9.59e-05 ± 4.8e-05 s⁻¹
A14C A33U	2.7e-05 ± 1.4e-05 s⁻¹
C10G C16A G66U C68G	5.85e-05 ± 4e-05 s⁻¹
C11U U49G	1.44e-05 ± 1.3e-05 s⁻¹
G13U U69G	2.97e-05 ± 2.7e-05 s⁻¹
A12G G32A A39G	5.49e-05 ± 2.8e-05 s⁻¹
C61G C67U	2.45e-05 ± 1.4e-05 s⁻¹
C10A G38A U54A	0.00127 ± 0.001 s⁻¹
G7A C50G U54G	3.38e-05 ± 2e-05 s⁻¹
A12C C16U G29C A52U	4.43e-05 ± 2.6e-05 s⁻¹
C10U U49C C58U C61A	2.51e-05 ± 1.9e-05 s⁻¹
C10U G38U G63C C70U	4.38e-05 ± 3e-05 s⁻¹
A12C A14G U57G C70G	0.00268 ± 0.0017 s⁻¹
A6C G13U C50G	3.72e-05 ± 2.9e-05 s⁻¹
G7U G13U A15U C50A G51A G60U C67A C71A	2.76e-05 ± 2.4e-05 s⁻¹
G13C A33C C61A	0.00162 ± 0.0015 s⁻¹
G13U U31G A33G G37U U69A	2.52e-05 ± 2.3e-05 s⁻¹
C68G C70U	1.74e-05 ± 1.5e-05 s⁻¹
A6G C58U C61U C67U C70G	2.67e-05 ± 2e-05 s⁻¹
C10U C71G	2.03e-05 ± 1.2e-05 s⁻¹
G13U G66U	1.47e-05 ± 9.2e-06 s⁻¹
A12U G13U U30A	2.7e-05 ± 1.9e-05 s⁻¹

Variant	self-cleavage kobs at 2500 uM GlcN6P
A14G G40A A53U	0.0136 ± 0.0076 s⁻¹
A6C A53U C70U	2.08e-05 ± 1.7e-05 s⁻¹
C11U G29U A39C U54A	2.5e-05 ± 1.4e-05 s⁻¹
A6U G41A	1.87e-05 ± 1.8e-05 s⁻¹
C11U A14U G32A U45G	3.17e-05 ± 2.6e-05 s⁻¹
G7U G38A U69C	4.42e-05 ± 3e-05 s⁻¹
G7A U69G	4.18e-05 ± 2.3e-05 s⁻¹
A6G C8A G13U G29C G35U G37A C71U	3.17e-05 ± 2.1e-05 s⁻¹
A6C U65G	2.72e-05 ± 1.6e-05 s⁻¹
G7U C70G C71G	2.64e-05 ± 2.3e-05 s⁻¹
C11G C67G C70G	3.4e-05 ± 1.9e-05 s⁻¹
G9A A42C A53C	0.00162 ± 0.0015 s⁻¹
G13U U31A G38U C58A C67U	4.14e-05 ± 2.1e-05 s⁻¹
G7A U54C	2.5e-05 ± 1.4e-05 s⁻¹
G13C U56C	1.63e-05 ± 1.3e-05 s⁻¹
C11G C67G	2.39e-05 ± 1.4e-05 s⁻¹
G7U C58G C61G	4e-05 ± 3.3e-05 s⁻¹
G13A U47A U55A U65A	2.65e-05 ± 1.5e-05 s⁻¹
C10G G60U C67A	4.02e-05 ± 2.2e-05 s⁻¹
A12G G13C G26U	2.15e-05 ± 2e-05 s⁻¹
A6U A14G U65G	3.22e-05 ± 2.3e-05 s⁻¹

Single entries from above.
self-cleavage kobs at 2500 uM GlcN6P, A6G C8A G13U G29C G35U G37A C71U reads 3.17e-05 ± 2.1e-05 s⁻¹
self-cleavage kobs at 2500 uM GlcN6P, G13U U31A G38U C58A C67U reads 4.14e-05 ± 2.1e-05 s⁻¹
self-cleavage kobs at 2500 uM GlcN6P, A14G G40A A53U reads 0.0136 ± 0.0076 s⁻¹

Variants of: B1
Test: self-cleavage kobs at 10000 uM GlcN6P; higher = faster cleavage; RNA array
Settings: with glucosamine-6-phosphate
Summary of the method: as §1

Variant	self-cleavage kobs at 10000 uM GlcN6P
C11U U49G	1.23e-05 ± 1e-05 s⁻¹
G7U C70G C71G	2.42e-05 ± 1.9e-05 s⁻¹
G7A U54C	1.48e-05 ± 1.3e-05 s⁻¹

Variants of: B1
Test: self-cleavage kobs at 640 uM GlcN6P; higher = faster cleavage; RNA array
Settings: with glucosamine-6-phosphate
Summary of the method: as §1

Variant	self-cleavage kobs at 640 uM GlcN6P
C61G C67U	2.18e-05 ± 1.8e-05 s⁻¹
C61A	< 1e-05 s⁻¹
C61U	< 1e-05 s⁻¹
C68A C71U	1.6e-05 ± 1.3e-05 s⁻¹
